No constants are given. Whether binding was seen depends on the method and setting.
Target: human SH3BGRL (human), O75368
Test: AUC
Details: remark: other sources report otherwise

- binding: no binding
B1: human SH3BGRL, O75368 1-114 (protein)
chain: MVIRVYIASSSGSTAIKKKQQDVLGFLEANKIGFEEKDIAANEENRKWMRENVPENSRPATGYPLPPQIFNESQYRGDYDAFFEARENNAVYAFLGLTAPPGSKEAEVQAKQQA

From doi:10.1101/2025.03.25.645244
